Substitutions are numbered along the chain they refer to. These are yes or no findings as the source states them, for the method shown. Some binding calls cover weakened binding; strength is not graded here.
Experiments:
[1] = target: T1, CCN1-D125A mutant protein (UniProt P18406); assay: far-Western, overlay or dot blot; dot blot: CCN1-WT, -D125A and -DM (1 µg each) spotted on nitrocellulose, incubated with hTLR2 or hTLR4 in PBS; bound TLRs detected with polyclonal anti-hTLR2 or anti-hTLR4 antibodies; both purified
T1 sequence: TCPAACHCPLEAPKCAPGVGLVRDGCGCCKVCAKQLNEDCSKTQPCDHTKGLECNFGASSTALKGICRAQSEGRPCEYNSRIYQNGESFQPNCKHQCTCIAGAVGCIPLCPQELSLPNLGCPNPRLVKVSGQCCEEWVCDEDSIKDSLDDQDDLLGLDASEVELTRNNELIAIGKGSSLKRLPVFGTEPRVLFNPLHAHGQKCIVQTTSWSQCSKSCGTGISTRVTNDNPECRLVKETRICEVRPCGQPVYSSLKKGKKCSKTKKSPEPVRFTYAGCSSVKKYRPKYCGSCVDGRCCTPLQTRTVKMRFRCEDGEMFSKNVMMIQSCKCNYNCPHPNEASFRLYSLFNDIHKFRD

Sequences of proteins named here, by UniProt entry; tags and fusion partners are left off. Residues count along the entry.
UniProt O00206, residues 24-631: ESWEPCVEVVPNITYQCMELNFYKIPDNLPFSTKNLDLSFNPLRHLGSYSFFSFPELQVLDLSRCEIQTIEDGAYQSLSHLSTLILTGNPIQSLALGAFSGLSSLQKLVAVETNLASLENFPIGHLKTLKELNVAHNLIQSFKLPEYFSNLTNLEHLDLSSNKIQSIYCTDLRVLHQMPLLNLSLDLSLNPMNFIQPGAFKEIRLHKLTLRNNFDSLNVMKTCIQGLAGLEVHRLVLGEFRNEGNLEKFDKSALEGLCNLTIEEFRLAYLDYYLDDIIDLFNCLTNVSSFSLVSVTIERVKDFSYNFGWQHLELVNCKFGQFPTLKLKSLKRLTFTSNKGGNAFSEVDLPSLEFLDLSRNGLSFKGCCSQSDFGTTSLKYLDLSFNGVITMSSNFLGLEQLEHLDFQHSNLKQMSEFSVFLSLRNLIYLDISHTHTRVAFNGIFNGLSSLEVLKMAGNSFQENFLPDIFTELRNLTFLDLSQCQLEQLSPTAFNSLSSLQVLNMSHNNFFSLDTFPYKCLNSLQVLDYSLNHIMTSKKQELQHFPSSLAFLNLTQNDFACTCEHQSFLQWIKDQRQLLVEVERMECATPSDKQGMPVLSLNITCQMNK
UniProt O60603, residues 21-588: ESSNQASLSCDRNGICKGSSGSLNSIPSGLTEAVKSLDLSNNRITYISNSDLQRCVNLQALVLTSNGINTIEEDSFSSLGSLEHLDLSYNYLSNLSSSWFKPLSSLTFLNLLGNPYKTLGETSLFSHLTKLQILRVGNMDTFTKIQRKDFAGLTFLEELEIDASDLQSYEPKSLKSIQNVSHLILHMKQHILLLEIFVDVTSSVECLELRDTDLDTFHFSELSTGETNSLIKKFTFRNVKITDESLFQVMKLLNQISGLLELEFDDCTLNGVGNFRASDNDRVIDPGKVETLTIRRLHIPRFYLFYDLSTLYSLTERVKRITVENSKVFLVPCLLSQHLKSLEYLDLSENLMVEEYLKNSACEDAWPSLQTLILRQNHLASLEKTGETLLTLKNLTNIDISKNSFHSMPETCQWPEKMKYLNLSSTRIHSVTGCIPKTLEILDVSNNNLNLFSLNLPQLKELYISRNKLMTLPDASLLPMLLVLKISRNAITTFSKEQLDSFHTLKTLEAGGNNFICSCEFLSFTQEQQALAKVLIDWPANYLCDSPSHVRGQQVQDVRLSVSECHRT

[2] = target: T2, CCN1-WT (recombinant matricellular protein CCN1) (UniProt P18406); assay: as above
T2 sequence: T1 sequence with A101D

[3] = target: T2, CCN1-WT (recombinant matricellular protein CCN1); assay: ELISA; solid-phase-binding assay: 96-well plates coated with serially diluted CCN1 in bicarbonate/carbonate buffer (100 mM, pH 9.6) overnight at 4 °C, blocked with PVA; hTLR2, hTLR4 or hCD14 (0.2 µg per well) added; detected with anti-hTLR2, anti-hTLR4 or anti-hCD14 antibodies, HRP/TMB, A450; both …

Row | binding [1] | binding [2] | binding [3] | Substance
1 | binds | binds | binds | human recombinant TLR4 protein (without MD2) (from UniProt O00206 24-631) (receptor)
2 | binds | binds | binds | human recombinant TLR2 protein (from UniProt O60603 21-588) (receptor)
